In patent US20020045741A1:
These are yes or no findings as the source states them, for the method shown. Binding seen in cells or lysates may run through a third protein. Some binding calls cover weakened binding; strength is not graded here. Where a sequence is shown, tags or fusion partners need not be part of it.

Molecular target: T1, C'-terminal I-SPY-tagged human NR6 (pEF-C'-I-SPY/hNR6, from 293T cells) (human) (UniProt O75462)
T1 sequence: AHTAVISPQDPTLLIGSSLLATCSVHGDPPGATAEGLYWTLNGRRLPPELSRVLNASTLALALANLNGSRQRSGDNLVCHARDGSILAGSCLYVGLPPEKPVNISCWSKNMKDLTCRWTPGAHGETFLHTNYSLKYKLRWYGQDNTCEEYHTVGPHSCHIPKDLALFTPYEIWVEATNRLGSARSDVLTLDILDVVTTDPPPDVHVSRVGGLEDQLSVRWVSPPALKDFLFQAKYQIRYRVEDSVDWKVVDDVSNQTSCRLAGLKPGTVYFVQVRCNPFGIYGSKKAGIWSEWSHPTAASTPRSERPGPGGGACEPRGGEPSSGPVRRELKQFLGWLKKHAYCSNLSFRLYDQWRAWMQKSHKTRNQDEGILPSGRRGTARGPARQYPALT
Assay: co-immunoprecipitation from cotransfected 293T supernatant (anti-I-SPY resin, anti-FLAG blot); association of monomer chains

- binding: binds
B1: C-terminal FLAG-tagged human NR6 (pEF-C'-FLAG/hNR6, from 293T or CHO cells) (receptor)
chain: AHTAVISPQDPTLLIGSSLLATCSVHGDPPGATAEGLYWTLNGRRLPPELSRVLNASTLALALANLNGSRQRSGDNLVCHARDGSILAGSCLYVGLPPEKPVNISCWSKNMKDLTCRWTPGAHGETFLHTNYSLKYKLRWYGQDNTCEEYHTVGPHSCHIPKDLALFTPYEIWVEATNRLGSARSDVLTLDILDVVTTDPPPDVHVSRVGGLEDQLSVRWVSPPALKDFLFQAKYQIRYRVEDSVDWKVVDDVSNQTSCRLAGLKPGTVYFVQVRCNPFGIYGSKKAGIWSEWSHPTAASTPRSERPGPGGGACEPRGGEPSSGPVRRELKQFLGWLKKHAYCSNLSFRLYDQWRAWMQKSHKTRNQDEGILPSGRRGTARGPARDYKDDDDK
